Measurements taken from publication PMC7862700.
The list shows a part of the results, in another mix than the full data. At the low end of the ranking the order means little.

Chains of the proteins cited; added tags and fusions are not shown. Lines headed by an entry give the natural chain unless they say otherwise; changes in a name come on top.
UniProt Q9Y603: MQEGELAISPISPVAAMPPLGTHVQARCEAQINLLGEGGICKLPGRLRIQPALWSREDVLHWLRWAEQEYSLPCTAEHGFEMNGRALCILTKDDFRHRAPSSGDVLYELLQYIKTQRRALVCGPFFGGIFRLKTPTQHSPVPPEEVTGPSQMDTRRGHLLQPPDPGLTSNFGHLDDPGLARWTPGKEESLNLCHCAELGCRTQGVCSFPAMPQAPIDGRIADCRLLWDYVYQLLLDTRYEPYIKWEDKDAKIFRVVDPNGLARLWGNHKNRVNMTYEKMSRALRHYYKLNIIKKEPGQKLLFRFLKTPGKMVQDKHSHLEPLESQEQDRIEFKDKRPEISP
UniProt P41212: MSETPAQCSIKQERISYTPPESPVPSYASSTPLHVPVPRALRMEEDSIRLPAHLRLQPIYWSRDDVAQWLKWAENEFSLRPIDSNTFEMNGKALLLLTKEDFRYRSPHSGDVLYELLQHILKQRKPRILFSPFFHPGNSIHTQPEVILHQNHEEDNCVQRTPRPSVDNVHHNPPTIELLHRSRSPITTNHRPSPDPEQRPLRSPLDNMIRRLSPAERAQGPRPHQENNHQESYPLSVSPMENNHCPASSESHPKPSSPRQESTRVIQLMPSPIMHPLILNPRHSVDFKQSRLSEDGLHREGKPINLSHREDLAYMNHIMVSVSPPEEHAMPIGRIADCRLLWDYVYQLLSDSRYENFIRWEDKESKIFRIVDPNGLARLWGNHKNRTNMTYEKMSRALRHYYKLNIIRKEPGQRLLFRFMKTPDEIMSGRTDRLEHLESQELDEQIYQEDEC

target: T1, ELF3 (UniProt P78545); experiment: DAPPL (digital affinity profiling via proximity ligation, sequencing); conditions: 10 mM Tris-HCl pH 7.5, 50 mM NaCl, 1 mM DTT, 4% glycerol, room temperature, 30 min; GST-TFs on glutathione beads, 16-mer random dsDNA library, 0.1% …; high values mean tight binding; double strand, one strand shown; scale: fold enrichment (6-mer frequency, TF over GST control)
T1 sequence: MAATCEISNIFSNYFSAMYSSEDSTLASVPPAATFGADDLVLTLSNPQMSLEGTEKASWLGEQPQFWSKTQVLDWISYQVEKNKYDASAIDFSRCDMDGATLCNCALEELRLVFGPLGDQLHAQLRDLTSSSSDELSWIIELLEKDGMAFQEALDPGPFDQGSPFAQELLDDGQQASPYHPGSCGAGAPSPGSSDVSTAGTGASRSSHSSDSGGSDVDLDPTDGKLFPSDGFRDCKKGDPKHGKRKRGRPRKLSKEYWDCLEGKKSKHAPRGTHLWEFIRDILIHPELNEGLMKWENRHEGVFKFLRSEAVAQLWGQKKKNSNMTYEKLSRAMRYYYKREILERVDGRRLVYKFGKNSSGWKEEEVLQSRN

Sequence	binding signal
AGCCGT	0.559
GTCGTT	0.598
CCGCGA	0.694
GAGACT	0.368
GGATTG	0.795
GGCGCG	0.691
GTACGT	0.755
GGCAAG	0.757
CAGTTG	0.449
ATCGGA	0.395
CGTGTA	0.653
CAGTAC	0.873
CGTCGG	0.48
GTGTGG	0.609
ATGTCG	0.701
GAAGGC	0.873
CGGTGG	0.503
TGCAGT	0.869
AGCACC	0.939
CAGTCG	0.178

Sequence	binding signal
TGAGAT	0.747
CCCAGC	0.946
AGCGTT	0.859
GCCGGC	0.801
GCGGGT	0.653
AGTCTG	0.62
CAGAGG	0.646
ACCCAG	0.682
GTCGTG	0.403
GGTTGA	0.726
CTGAGT	0.477
CACAGA	0.822
CGGCGA	0.614
GCGGGG	0.377
GCACAG	0.764
GAGTGT	0.445
TGGGGG	0.854
GGCACA	0.857
GGTGTC	0.893

target: ETV7 (UniProt Q9Y603); experiment: as above; conditions: 10 mM Tris-HCl pH 7.5, 50 mM NaCl, 1 mM DTT, 4% glycerol, room temperature, 30 min; GST-TFs on glutathione beads, 16-mer random dsDNA library, 0.1% …; high values mean tight binding; double strand, one strand shown; scale: fold enrichment (6-mer frequency, TF over GST control)

Sequence	binding signal
AGCCGT	0.527
GTCGTT	0.719
CCGCGA	0.761
GAGACT	0.419
GGATTG	0.816
GGCGCG	0.819
GTACGT	0.846
GGCAAG	0.65
CAGTTG	0.504
ATCGGA	0.411
CGTGTA	0.691
CAGTAC	0.847
CGTCGG	0.476
GTGTGG	0.626
ATGTCG	0.623
GAAGGC	0.965
CGGTGG	0.609
TGCAGT	0.818
AGCACC	0.957
CAGTCG	0.256

Sequence	binding signal
TGAGAT	0.763
CCCAGC	0.85
AGCGTT	0.996
GCCGGC	0.816
GCGGGT	0.684
AGTCTG	0.724
CAGAGG	0.693
ACCCAG	0.72
GTCGTG	0.454
GGTTGA	0.719
CTGAGT	0.653
CACAGA	0.902
CGGCGA	0.775
GCGGGG	0.574
GCACAG	0.763
GAGTGT	0.614
TGGGGG	0.806
GGCACA	0.892
GGTGTC	0.807

target: ETV6 (UniProt P41212); experiment: as above; conditions: 10 mM Tris-HCl pH 7.5, 50 mM NaCl, 1 mM DTT, 4% glycerol, room temperature, 30 min; GST-TFs on glutathione beads, 16-mer random dsDNA library, 0.1% …; high values mean tight binding; double strand, one strand shown; scale: fold enrichment (6-mer frequency, TF over GST control)

Sequence	binding signal
AGCCGT	0.485
GTCGTT	0.75
CCGCGA	0.658
GAGACT	0.385
GGATTG	0.771
GGCGCG	0.675
GTACGT	0.911
GGCAAG	0.745
CAGTTG	0.496
ATCGGA	0.438
CGTGTA	0.647
CAGTAC	0.839
CGTCGG	0.403
GTGTGG	0.716
ATGTCG	0.544
GAAGGC	0.907
CGGTGG	0.602
TGCAGT	0.804
AGCACC	0.923
CAGTCG	0.173

Sequence	binding signal
TGAGAT	0.624
CCCAGC	0.822
AGCGTT	0.918
GCCGGC	0.868
GCGGGT	0.587
AGTCTG	0.544
CAGAGG	0.598
ACCCAG	0.659
GTCGTG	0.391
GGTTGA	0.756
CTGAGT	0.595
CACAGA	0.852
CGGCGA	0.755
GCGGGG	0.415
GCACAG	0.708
GAGTGT	0.532
TGGGGG	0.802
GGCACA	0.86
GGTGTC	0.777
